Measured values: patent US20050276757A1
No constants are given. Whether binding was seen depends on the method and setting. For some assays here: Binding seen in cells or lysates may run through a third protein. Some entries that bind do so weakly or less than the wild type.

Amino acid sequences for entries named in this document (tags omitted).
UniProt Q9NYB9: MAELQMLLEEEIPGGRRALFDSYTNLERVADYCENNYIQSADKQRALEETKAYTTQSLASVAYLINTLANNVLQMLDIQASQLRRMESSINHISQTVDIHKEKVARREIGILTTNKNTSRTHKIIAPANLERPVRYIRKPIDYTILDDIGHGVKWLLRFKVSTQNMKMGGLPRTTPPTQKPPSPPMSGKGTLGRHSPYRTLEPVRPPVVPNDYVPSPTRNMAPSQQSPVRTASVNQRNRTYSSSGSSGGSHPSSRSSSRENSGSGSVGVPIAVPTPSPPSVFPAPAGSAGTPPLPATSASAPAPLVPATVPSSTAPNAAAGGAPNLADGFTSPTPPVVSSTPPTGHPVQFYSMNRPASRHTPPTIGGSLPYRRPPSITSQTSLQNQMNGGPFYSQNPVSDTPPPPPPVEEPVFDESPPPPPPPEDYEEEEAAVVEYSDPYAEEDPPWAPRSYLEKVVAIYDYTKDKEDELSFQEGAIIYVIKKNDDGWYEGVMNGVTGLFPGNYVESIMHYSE
UniProt Q8N4C8: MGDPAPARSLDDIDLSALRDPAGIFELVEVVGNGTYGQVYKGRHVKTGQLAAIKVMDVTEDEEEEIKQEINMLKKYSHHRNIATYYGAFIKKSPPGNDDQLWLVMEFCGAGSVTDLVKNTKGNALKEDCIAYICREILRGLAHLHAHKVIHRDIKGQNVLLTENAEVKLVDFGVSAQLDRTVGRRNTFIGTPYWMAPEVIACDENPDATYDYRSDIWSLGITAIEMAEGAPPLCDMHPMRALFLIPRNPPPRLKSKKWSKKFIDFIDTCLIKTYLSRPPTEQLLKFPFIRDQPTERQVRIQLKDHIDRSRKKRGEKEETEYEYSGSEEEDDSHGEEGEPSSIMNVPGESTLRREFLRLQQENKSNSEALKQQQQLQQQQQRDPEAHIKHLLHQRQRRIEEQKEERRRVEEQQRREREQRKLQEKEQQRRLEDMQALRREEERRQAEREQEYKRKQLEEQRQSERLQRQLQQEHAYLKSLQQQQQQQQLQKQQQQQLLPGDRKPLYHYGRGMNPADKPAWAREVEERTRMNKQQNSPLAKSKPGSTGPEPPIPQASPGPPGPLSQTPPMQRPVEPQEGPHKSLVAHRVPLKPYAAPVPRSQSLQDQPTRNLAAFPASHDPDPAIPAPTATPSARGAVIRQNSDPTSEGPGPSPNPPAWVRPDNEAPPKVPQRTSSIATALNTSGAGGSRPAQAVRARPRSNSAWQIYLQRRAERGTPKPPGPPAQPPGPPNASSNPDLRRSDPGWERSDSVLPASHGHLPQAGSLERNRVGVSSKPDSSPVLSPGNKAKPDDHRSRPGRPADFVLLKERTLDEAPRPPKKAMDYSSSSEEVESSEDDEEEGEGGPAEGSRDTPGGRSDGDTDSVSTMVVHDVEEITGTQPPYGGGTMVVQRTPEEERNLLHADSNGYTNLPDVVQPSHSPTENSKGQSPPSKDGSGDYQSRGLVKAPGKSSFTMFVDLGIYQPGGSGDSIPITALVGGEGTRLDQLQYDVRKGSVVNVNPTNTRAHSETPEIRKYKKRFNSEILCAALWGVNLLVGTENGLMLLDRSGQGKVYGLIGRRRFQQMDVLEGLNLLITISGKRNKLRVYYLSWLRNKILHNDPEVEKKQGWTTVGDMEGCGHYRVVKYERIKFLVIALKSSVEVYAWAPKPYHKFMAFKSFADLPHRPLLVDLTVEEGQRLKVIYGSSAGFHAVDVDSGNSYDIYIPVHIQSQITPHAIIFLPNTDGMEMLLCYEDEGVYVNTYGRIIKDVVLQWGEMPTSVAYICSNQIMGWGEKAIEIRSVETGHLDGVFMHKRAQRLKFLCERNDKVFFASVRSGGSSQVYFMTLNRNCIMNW

Columns and labels:
[1] = target: HA-tagged Abi-2B expressed from pCGN HA-Abi2B (UniProt Q9NYB9); assay: co-immunoprecipitation from co-transfected COS-7 cells
[2] = target: HA-tagged Abi-2B expressed from pCGN HA-Abi2B (UniProt Q9NYB9); assay: co-immunoprecipitation from co-transfected COS7 cells
[3] = target: HA-tagged Abi-2B expressed from pCGN HA-Abi2B (UniProt Q9NYB9); assay: immunoprecipitation with anti-HA antibody (12CA5) from co-transfected COS7 cells, blot for ZC3
[4] = target: ZC3 kinase expressed from pcDNA-ZC3 (human) (UniProt Q8N4C8); assay: co-immunoprecipitation from co-transfected COS-7 cells
[5] = target: ZC3 kinase expressed from pcDNA-ZC3 (human) (UniProt Q8N4C8); assay: immunoprecipitation with anti-ZC3 antibody (292B) from co-transfected COS7 cells, blot for Abi

ZC3 kinase expressed from pcDNA-ZC3 (from UniProt Q8N4C8 1-1332) (enzyme)
binding [1]: binds | binding [2]: binds | binding [3]: binds

HA-tagged Abi-2B expressed from pCGN HA-Abi2B (from UniProt Q9NYB9 1-513)
binding [4]: binds | binding [5]: binds
